In the supplement of paper PMC8728848:
Some of the results follow.

Key:
Experiment in all cases: glycan array binding signal (z-score within array); higher = stronger binding
Conditions in all cases: glycan notation: IUPAC condensed, linker removed
[1] = biological target: Gal(b1-4)GlcNAc(b1-3)Gal(b1-4)GlcNAc(b1-6)[Gal(b1-3)]GalNAc
In short: (§1)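 Negative Z-scores can be read as non-binding. The Z-score is calculated within each array and then averaged across arrays of one protein sequence at different concentrations or buffers and across linkers. Arrays, 3228 in all, were curated from the Consortium for Functional Glycomics database and kept only where the protein sequence was available.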

[2] = biological target: Gal(b1-4)GlcNAc(b1-3)Gal(b1-4)[Fuc(a1-3)]GlcNAc(b1-3)Gal(b1-4)[Fuc(a1-3)]GlcNAc
In short: as §1

[3] = biological target: Gal(b1-4)GlcNAc(b1-3)GalNAc
In short: as §1

[4] = biological target: Gal(b1-4)GlcNAc(b1-3)[Fuc(a1-3)GlcNAc(b1-6)]Gal(b1-4)Glc
In short: as §1

[5] = biological target: Gal(b1-4)GlcNAc(b1-3)[Gal(b1-4)GlcNAc(b1-6)]Gal(b1-4)GlcNAc
In short: as §1

[6] = biological target: Gal(b1-4)GlcNAc(b1-3)[GlcNAc(b1-6)]Gal(b1-4)GlcNAc
In short: as §1

[7] = biological target: Gal(b1-4)GlcNAc(b1-6)Gal(b1-4)GlcNAc
In short: as §1

[8] = biological target: Gal(b1-4)GlcNAc(b1-6)GalNAc
In short: as §1

[9] = biological target: Gal(b1-4)GlcNAc(b1-6)[Gal(b1-3)]GalNAc
In short: as §1

[10] = biological target: Gal(b1-4)GlcNAc(b1-6)[Gal(b1-4)GlcNAc(b1-3)]GalNAc
In short: as §1

[11] = biological target: Gal(b1-4)GlcNAc6P
In short: as §1

[12] = biological target: Gal(b1-6)Gal
In short: as §1

[13] = biological target: Gal3S(b1-3)GalNAc
In short: as §1

[14] = biological target: Gal3S(b1-3)GlcNAc
In short: as §1

[15] = biological target: Gal3S(b1-3)[Fuc(a1-4)]GlcNAc
In short: as §1

[16] = biological target: Gal3S(b1-4)Glc
In short: as §1

[17] = biological target: Gal3S(b1-4)Glc6S
In short: as §1

[18] = biological target: Gal3S(b1-4)GlcNAc
In short: as §1

[19] = biological target: Gal3S(b1-4)[Fuc(a1-3)]Glc6S
In short: as §1

[20] = biological target: Gal3S(b1-4)[Fuc(a1-3)]GlcNAc
In short: as §1

[21] = biological target: Gal3S(b1-4)[Fuc(a1-3)]GlcNAc6S
In short: as §1

[22] = biological target: Gal3S4S(b1-4)GlcNAc
In short: as §1

[23] = biological target: Gal3S6S(b1-4)GlcNAc
In short: as §1

[24] = biological target: Gal3S6S(b1-4)GlcNAc6S
In short: as §1

[25] = biological target: Gal4S(b1-4)GlcNAc
In short: as §1

[26] = biological target: Gal4S6S(b1-4)GlcNAc
In short: as §1

[27] = biological target: Gal6P(b1-4)GlcNAc
In short: as §1

[28] = biological target: Gal6S(b1-3)GlcNAc
In short: as §1

[29] = biological target: Gal6S(b1-3)GlcNAc6S
In short: as §1

[30] = biological target: Gal6S(b1-4)Glc
In short: as §1

[31] = biological target: Gal6S(b1-4)Glc6S
In short: as §1

[32] = biological target: Gal6S(b1-4)GlcNAc
In short: as §1

[33] = biological target: Gal6S(b1-4)GlcNAc6S
In short: as §1

[34] = biological target: GalNAc(a1-3)Gal
In short: as §1

[35] = biological target: GalNAc(a1-3)GalNAc
In short: as §1

[36] = biological target: GalNAc(a1-3)GalNAc(b1-3)Gal(a1-4)Gal(b1-4)Glc
In short: as §1

[37] = biological target: GalNAc(a1-3)GalNAc(b1-3)Gal(a1-4)Gal(b1-4)GlcNAc
In short: as §1

[38] = biological target: GalNAc(b1-3)Gal
In short: as §1

[39] = biological target: GalNAc(b1-3)Gal(a1-4)Gal(b1-4)GlcNAc
In short: as §1

[40] = biological target: GalNAc(b1-3)Gal(a1-4)Gal(b1-4)GlcNAc(b1-3)Gal(b1-4)Glc
In short: as §1

[41] = biological target: GalNAc(b1-3)Gal(a1-6)Gal(b1-4)Glc
In short: as §1

[42] = biological target: GalNAc(b1-3)GalNAc
In short: as §1

[43] = biological target: GalNAc(b1-3)GlcNAc
In short: as §1

[44] = biological target: GalNAc(b1-4)Gal(b1-4)Glc
In short: as §1

[45] = biological target: GalNAc(b1-4)GlcNAc
In short: as §1

B1: EUL D1A second (Oryza sativa) (protein)
chain: GAATACTIGGVPVHTVRVFSAAGEDYCLTVRNGTACLAPKNPRDDYQHWIKDMRHSNKIRDEEGYPAFALVNKVTGEAIKHSTGQGHPVKLVPYNPEYQDESVLWTESKDVGKGFRCIRMVNNIYLNFDAFHGDKDHGGIHDGTEIVLWKWCEGDNQRWKILPWILEQKLISEEDLNSAVDHHHHHH
- glycan array binding signal (z-score) [1]: 0.838
- glycan array binding signal (z-score) [2]: 1.66
- glycan array binding signal (z-score) [3]: -0.258
- glycan array binding signal (z-score) [4]: 0.014
- glycan array binding signal (z-score) [5]: 0.949
- glycan array binding signal (z-score) [6]: -1.47
- glycan array binding signal (z-score) [7]: -0.144
- glycan array binding signal (z-score) [8]: 1.2
- glycan array binding signal (z-score) [9]: 0.488
- glycan array binding signal (z-score) [10]: -0.385
- glycan array binding signal (z-score) [11]: 0.182
- glycan array binding signal (z-score) [12]: 1.02
- glycan array binding signal (z-score) [13]: 0.302
- glycan array binding signal (z-score) [14]: -0.555
- glycan array binding signal (z-score) [15]: 0.949
- glycan array binding signal (z-score) [16]: -0.323
- glycan array binding signal (z-score) [17]: -0.241
- glycan array binding signal (z-score) [18]: 0.255
- glycan array binding signal (z-score) [19]: 2.74
- glycan array binding signal (z-score) [20]: 2.4
- glycan array binding signal (z-score) [21]: 0.696
- glycan array binding signal (z-score) [22]: -0.752
- glycan array binding signal (z-score) [23]: 1.92
- glycan array binding signal (z-score) [24]: 0.549
- glycan array binding signal (z-score) [25]: -0.126
- glycan array binding signal (z-score) [26]: 0.675
- glycan array binding signal (z-score) [27]: -1.25
- glycan array binding signal (z-score) [28]: 0.058
- glycan array binding signal (z-score) [29]: -1.04
- glycan array binding signal (z-score) [30]: 0.271
- glycan array binding signal (z-score) [31]: 0.949
- glycan array binding signal (z-score) [32]: -0.478
- glycan array binding signal (z-score) [33]: 0.99
- glycan array binding signal (z-score) [34]: 0.425
- glycan array binding signal (z-score) [35]: -0.302
- glycan array binding signal (z-score) [36]: 0.152
- glycan array binding signal (z-score) [37]: 0.93
- glycan array binding signal (z-score) [38]: -0.727
- glycan array binding signal (z-score) [39]: 0.719
- glycan array binding signal (z-score) [40]: -0.809
- glycan array binding signal (z-score) [41]: -0.495
- glycan array binding signal (z-score) [42]: 0.63
- glycan array binding signal (z-score) [43]: -0.511
- glycan array binding signal (z-score) [44]: 0.707
- glycan array binding signal (z-score) [45]: 0.307
